Results reported in article PMC9380745.
Results are given in words; binding and its absence hold for the method and conditions named. Binding seen in cells or lysates may run through a third protein. Some entries that bind do so weakly or less than the wild type. Sequences can lack the tags named with a protein. Values belong to the molecule of their own block, whether it stands above or below them.

Sequences of proteins named here, by UniProt entry; tags and fusion partners are left off.
UniProt Q9UJV9: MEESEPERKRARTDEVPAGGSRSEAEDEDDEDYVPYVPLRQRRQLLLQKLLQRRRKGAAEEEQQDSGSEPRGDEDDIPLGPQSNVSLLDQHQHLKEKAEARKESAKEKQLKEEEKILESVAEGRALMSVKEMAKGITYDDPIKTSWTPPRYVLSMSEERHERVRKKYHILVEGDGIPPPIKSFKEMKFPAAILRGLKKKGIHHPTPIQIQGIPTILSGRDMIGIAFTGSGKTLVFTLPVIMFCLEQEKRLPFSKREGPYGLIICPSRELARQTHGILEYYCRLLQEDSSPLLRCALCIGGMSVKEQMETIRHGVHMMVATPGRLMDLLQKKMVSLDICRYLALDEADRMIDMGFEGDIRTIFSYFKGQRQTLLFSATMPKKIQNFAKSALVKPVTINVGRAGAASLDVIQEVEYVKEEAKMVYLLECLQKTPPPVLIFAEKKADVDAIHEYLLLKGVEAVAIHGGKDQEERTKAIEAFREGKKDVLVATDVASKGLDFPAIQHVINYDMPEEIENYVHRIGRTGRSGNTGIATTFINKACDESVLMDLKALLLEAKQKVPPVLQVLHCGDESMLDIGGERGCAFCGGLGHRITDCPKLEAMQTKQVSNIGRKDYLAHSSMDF
UniProt Q96Q15: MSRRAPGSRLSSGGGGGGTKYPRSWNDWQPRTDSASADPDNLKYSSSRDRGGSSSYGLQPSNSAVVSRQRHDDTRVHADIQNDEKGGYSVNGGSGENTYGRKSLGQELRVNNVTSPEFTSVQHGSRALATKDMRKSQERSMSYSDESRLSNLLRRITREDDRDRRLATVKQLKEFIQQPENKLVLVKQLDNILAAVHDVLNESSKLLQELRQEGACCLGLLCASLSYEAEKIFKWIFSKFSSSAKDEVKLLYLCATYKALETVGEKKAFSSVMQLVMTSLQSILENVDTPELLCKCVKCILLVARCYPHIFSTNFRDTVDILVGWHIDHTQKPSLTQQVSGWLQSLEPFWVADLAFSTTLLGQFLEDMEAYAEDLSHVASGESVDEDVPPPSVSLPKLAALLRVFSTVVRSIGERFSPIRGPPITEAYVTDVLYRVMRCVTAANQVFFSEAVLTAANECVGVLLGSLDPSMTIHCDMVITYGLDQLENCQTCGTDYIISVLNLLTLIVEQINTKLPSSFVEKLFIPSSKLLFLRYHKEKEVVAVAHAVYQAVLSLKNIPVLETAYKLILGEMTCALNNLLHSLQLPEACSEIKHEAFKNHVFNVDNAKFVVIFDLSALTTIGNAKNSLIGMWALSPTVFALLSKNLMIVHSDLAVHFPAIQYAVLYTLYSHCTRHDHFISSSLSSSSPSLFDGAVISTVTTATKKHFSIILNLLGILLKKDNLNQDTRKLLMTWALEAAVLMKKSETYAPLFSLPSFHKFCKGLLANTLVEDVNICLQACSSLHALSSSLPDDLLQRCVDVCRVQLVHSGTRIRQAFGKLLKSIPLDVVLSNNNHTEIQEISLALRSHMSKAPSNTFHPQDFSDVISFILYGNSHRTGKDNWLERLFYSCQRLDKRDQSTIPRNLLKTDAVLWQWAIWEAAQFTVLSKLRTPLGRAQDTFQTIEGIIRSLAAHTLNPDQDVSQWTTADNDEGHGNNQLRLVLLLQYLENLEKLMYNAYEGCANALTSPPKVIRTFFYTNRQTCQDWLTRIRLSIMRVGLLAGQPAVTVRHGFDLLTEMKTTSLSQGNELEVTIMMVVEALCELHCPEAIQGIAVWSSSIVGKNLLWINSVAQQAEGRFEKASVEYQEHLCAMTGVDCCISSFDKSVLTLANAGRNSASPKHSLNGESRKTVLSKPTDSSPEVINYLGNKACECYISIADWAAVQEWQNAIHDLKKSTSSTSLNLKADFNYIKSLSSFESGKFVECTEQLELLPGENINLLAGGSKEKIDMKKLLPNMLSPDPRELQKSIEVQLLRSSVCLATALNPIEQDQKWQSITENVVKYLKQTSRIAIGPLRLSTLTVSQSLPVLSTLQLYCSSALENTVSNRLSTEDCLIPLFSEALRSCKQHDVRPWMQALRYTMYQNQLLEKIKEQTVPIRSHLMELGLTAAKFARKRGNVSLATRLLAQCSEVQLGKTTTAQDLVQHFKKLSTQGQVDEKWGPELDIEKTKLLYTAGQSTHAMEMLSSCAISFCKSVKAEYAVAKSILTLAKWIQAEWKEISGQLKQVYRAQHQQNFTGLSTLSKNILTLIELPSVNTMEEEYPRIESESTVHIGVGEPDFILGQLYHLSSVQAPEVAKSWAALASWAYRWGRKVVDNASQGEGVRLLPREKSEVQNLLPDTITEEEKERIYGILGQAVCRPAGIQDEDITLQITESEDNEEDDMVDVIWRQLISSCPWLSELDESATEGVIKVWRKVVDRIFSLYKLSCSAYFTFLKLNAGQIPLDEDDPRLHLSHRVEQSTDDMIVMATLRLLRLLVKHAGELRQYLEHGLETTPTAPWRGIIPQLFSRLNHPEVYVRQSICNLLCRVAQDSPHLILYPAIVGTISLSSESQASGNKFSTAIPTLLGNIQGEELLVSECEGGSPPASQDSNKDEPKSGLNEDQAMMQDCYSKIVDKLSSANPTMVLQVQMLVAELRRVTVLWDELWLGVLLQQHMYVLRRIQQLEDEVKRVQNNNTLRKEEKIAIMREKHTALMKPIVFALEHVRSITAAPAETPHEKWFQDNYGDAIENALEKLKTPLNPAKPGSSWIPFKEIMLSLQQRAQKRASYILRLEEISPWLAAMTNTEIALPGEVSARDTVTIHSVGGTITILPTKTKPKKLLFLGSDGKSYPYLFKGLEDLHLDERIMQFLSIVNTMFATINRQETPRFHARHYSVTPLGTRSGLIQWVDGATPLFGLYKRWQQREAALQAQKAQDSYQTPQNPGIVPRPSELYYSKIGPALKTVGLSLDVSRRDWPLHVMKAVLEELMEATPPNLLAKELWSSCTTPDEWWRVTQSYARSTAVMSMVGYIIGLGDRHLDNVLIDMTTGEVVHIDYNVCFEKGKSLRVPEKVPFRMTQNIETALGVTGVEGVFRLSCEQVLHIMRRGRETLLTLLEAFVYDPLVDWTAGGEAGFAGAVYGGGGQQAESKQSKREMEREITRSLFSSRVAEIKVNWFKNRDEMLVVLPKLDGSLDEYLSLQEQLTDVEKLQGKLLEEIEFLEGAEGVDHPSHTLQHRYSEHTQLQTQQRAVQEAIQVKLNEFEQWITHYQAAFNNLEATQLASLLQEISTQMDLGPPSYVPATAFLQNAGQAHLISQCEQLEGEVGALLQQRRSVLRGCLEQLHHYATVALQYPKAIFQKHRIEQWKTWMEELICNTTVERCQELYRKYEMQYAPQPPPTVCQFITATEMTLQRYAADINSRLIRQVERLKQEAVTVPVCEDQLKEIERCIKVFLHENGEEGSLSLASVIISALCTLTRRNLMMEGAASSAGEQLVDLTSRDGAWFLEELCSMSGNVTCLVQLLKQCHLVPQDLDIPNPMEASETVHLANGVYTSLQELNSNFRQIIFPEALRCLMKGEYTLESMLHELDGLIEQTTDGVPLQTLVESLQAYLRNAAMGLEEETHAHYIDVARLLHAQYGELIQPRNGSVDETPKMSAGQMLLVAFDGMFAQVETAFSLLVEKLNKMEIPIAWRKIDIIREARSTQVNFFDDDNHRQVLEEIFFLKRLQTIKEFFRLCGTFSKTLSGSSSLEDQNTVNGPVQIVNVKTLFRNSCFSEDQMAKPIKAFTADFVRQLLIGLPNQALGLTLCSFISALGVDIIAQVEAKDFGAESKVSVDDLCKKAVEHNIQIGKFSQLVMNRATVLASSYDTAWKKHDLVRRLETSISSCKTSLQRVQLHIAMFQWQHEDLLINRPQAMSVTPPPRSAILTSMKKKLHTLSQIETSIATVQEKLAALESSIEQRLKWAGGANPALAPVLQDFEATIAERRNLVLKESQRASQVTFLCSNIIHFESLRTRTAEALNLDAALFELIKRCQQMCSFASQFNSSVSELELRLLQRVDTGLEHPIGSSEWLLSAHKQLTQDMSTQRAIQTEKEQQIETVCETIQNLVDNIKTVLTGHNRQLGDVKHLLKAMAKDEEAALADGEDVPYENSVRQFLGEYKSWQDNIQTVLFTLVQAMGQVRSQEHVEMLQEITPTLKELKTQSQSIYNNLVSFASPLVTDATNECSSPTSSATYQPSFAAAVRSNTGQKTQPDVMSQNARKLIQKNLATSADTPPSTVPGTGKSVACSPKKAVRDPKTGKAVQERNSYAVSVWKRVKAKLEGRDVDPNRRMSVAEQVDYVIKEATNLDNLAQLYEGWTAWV

Target: T1, DHX34–GFP–FLAG (human (endogenous in HEK293T)) (UniProt Q14147)
T1 sequence: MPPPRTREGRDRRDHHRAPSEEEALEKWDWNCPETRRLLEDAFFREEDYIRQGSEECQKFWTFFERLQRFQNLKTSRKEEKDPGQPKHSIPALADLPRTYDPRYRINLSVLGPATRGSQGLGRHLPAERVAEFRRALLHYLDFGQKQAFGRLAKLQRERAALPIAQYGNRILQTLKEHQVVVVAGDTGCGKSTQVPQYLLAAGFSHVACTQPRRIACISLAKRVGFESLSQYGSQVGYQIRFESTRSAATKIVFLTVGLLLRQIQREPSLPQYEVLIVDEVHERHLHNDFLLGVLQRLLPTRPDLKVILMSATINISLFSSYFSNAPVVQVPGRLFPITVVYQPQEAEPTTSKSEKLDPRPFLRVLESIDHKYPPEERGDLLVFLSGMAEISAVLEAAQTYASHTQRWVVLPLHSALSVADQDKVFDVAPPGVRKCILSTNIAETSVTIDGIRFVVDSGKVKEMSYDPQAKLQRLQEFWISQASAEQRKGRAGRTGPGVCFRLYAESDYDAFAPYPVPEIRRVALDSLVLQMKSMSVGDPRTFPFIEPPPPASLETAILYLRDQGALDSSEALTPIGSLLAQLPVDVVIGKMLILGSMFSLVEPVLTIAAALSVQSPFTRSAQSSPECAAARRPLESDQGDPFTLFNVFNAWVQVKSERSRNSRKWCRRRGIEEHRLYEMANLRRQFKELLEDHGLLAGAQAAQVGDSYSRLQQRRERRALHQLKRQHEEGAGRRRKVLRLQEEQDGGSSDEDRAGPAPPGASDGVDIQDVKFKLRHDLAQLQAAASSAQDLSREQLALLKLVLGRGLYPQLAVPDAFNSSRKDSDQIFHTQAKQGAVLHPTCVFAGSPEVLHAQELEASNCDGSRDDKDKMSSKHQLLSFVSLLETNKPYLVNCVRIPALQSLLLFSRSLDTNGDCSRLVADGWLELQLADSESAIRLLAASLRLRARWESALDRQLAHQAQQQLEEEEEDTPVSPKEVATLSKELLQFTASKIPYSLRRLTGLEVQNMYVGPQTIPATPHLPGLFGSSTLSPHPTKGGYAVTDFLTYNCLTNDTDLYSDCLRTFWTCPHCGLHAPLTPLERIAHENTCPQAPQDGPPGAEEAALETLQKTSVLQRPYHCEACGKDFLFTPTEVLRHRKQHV
Test: co-IP; anti-GFP MA magnetic beads (ChromoTek) on lysates of CRISPR DHX34–GFP–FLAG HEK293T clones; IP buffer 20 mM Tris-HCl pH 8, 150 mM NaCl, 1 mM EDTA, 1% NP-40, 0.2% deoxycholate, 1 mM DTT; lysates treated with 80 µg/mL RNase A; western blot

binding: binds
Molecule: DDX41 (from UniProt Q9UJV9 1-622)

binding: binds
Molecule: Serine/Threonine-protein kinase SMG1 (from UniProt Q96Q15 1-3661)

binding: binds
B1: ISY1 (protein, UniProt Q9ULR0 1-285)
chain: MARNAEKAMTALARFRQAQLEEGKVKERRPFLASECTELPKAEKWRRQIIGEISKKVAQIQNAGLGEFRIRDLNDEINKLLREKGHWEVRIKELGGPDYGKVGPKMLDHEGKEVPGNRGYKYFGAAKDLPGVRELFEKEPLPPPRKTRAELMKAIDFEYYGYLDEDDGVIVPLEQEYEKKLRAELVEKWKAEREARLARGEKEEEEEEEEEINIYAVTEEESDEEGSQEKGGDDSQQKFIAHVPVPSQQEIEEALVRRKKMELLQKYASETLQAQSEEARRLLGY
